Source: PubChem BioAssay AID493014 (National Center for Advancing Translational Sciences (NCATS), 2011)
The list shows a part of the results. The main result of the screen is listed elsewhere. These columns were measured beside it and carry no call. The list favours compounds with an active or inconclusive main result. Words in brackets tell the shape of the fitted curve; partial curves, single points and poor fits give uncertain potencies.

Assay: qHTS Assay to Find Inhibitors of Chronic Active B-Cell Receptor Signaling
Settings: ABC-DLBCL IkBa-CBG/CBR reporter, luminescence ratio (green luciferase fused to IkBa over red control in TMD8 lymphoma cells), 4 h
Method in brief: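 Concentration-response series (up to 46 uM) were applied to TMD8 dual-reporter cells for 4 h at 37C with doxycycline. Green/red ratio, after filter-overlap correction, defined %Activity; red signal alone was normalised to basal cells and zero luminescence.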

[1] = measured here: CBR red luminescence, cell number
[2] = measured here: IkBa-CBG green luminescence

SMILES	AC50 [1]	AC50 [2]
CN(C)C(CNC(=O)c1ccc(NS(=O)(=O)c2ccc(F)c(F)c2)cc1)c1ccccc1 (configuration not stated)	14.6 µM [falling, single point]	
COCCn1c(=N)c(S(=O)(=O)c2ccc(Br)cc2)cc2c(=O)n3ccccc3nc21	25.1 µM [rising, partial curve, poor fit]	
COc1ccc(-c2cc(C(F)(F)F)n3nc(C(=O)Nc4c(C)n(C)n(-c5ccccc5)c4=O)c(Cl)c3n2)cc1	1.78 µM [rising, partial curve]	
CCCn1c(C(C)Nc2nc(-c3cc(Cl)c(N)c(Cl)c3)cs2)nc2cc(Cl)c(N3CCCCC3)cc21 (configuration not stated)	6.31 µM [falling, partial curve]	
O=C(COC(=O)c1cc(Br)ccc1O)Nc1ccc2c(c1)OCCO2	5.17 µM [falling, full curve]	
Cc1ccoc1C(=O)N1CCN(C(=O)c2occc2C)CC1	31.6 µM [rising, partial curve, poor fit]	
COC(=O)c1scc(S(C)(=O)=O)c1-n1cccc1	35.5 µM [rising, single point]	
O=C(/C=C\Nc1ccc(S(=O)(=O)Nc2ncccn2)cc1)c1ccccc1	4.47 µM [rising, partial curve, poor fit]	
CCc1nc(SCC(=O)N2c3ccccc3CC2C)c2c(C)c(C)sc2n1 (configuration not stated)	2.51 µM [falling, full curve, poor fit]	
COc1ccc(N(CC(=O)NCc2ccc(C)cc2)S(=O)(=O)c2c(C)noc2C)cc1	20 µM [rising, single point]	
Cc1ccc(CNC(=O)CCSCc2cccc(F)c2)cc1	35.5 µM [rising, single point]	
Cc1ccc(NS(=O)(=O)c2cccc(C(=O)Nc3cc(C)on3)c2)cc1	14.6 µM [falling, partial curve, poor fit]	
Cc1ccc2cc3cc(C(=O)N4CCN(C(=O)c5ccco5)CC4)sc3nc2c1	0.731 µM [rising, partial curve, poor fit]	
COc1cc(Cn2c(-c3ccc(O)c(OC)c3)nc3ccccc32)ccc1O	8.91 µM [falling, partial curve, poor fit]	
CN(C)N1C(N)=C(C#N)C(c2ccsc2)C2=C1CCCC2=O (configuration not stated)	29.1 µM [falling, single point]	
Oc1ccc(N=Nc2nc(-c3ccccc3)c(-c3ccccc3)[nH]2)cc1		4.61 µM [falling, partial curve, poor fit]
CCOc1ccc(S(=O)(=O)Nc2ccc3oc(C)c(C(=O)OCCOC)c3c2)cc1	28.2 µM [rising, single point]	15.8 µM [falling, partial curve]
COc1ccc(Cl)cc1N1C(=O)C2CCCN2C1c1ccc(F)cc1 (configuration not stated)	6.51 µM [falling, single point]	
CCN1C(=O)CC(NCc2ccc3c(c2)OCO3)C1=O (configuration not stated)	2.06 µM [rising, partial curve, poor fit]	
CCOc1nc(-c2ccc(OC)cc2)ccc1-c1noc(C)n1	3.66 µM [rising, full curve]	
CC(=O)n1c2ccccc2c2c1c1ccccc1n2C	2.51 µM [falling, full curve]	

SMILES	AC50 [1]	AC50 [2]
COc1cc(NS(=O)(=O)c2c(C)[nH]c(C)c2C(=O)N2CCCC2)cc(OC)c1OC	3.16 µM [rising, single point]	
Cc1ccc(NC(=O)COC(=O)[C@@H]2CCCN2C(=O)c2cccs2)cc1S(=O)(=O)N(C)C	8.91 µM [rising, partial curve, poor fit]	
COc1cc2c(cc1OC)-c1n[nH]c(=S)n1C(C)(C)C2	4.47 µM [rising, full curve, poor fit]	
COc1ccc(-c2cc3cc(C(=O)O)ccn3c2C(=O)c2ccccc2)cc1	31.6 µM [rising, single point]	
COCCNC(=O)C(c1ccco1)N(C(=O)Cn1nnc2ccccc21)c1cccc(C)c1C (configuration not stated)	3.66 µM [rising, partial curve, poor fit]	
COCC(C)NC(=O)c1cc(-c2ccccc2OC)on1 (configuration not stated)	1 µM [falling, full curve]	
O=C(N/N=C/c1ccc(Br)s1)c1cccc([N+](=O)[O-])c1	29.1 µM [rising, single point]	
CCOC(=O)c1ncn2c1CN(C)C(=O)c1cc(F)ccc1-2	4.61 µM [rising, full curve]	
COCC(=O)NCCc1nc(-c2ccccc2)cs1	5.62 µM [rising, single point]	
O=C(NCc1ccc(-c2nc3ccccc3s2)cc1)c1ccc(Br)o1	10.3 µM [rising, partial curve]	
COc1cc(/C=C/c2ccc(O)cc2)cc(OC)c1		11.2 µM [falling, partial curve]
CCOC(=O)C1=C(C)c2ccccc2N(S(=O)(=O)C(F)(F)F)C1C(=O)OCC (configuration not stated)	23.1 µM [rising, single point]	
O=[N+]([O-])c1ccc(Sc2nc3ccccc3o2)c([N+](=O)[O-])c1	0.00517 µM [rising, full curve, poor fit]	5.8 µM [falling, full curve]
C/C(=N\NC(=O)CNC(=O)c1cccs1)c1ccc(Cl)c(Cl)c1	6.31 µM [rising, partial curve, poor fit]	
CCn1ncc2c1C(=O)NC1c3ccccc3C(=O)N21 (configuration not stated)	15.8 µM [falling, single point]	
CCc1ccc(CN(C)C(=O)c2cc(COc3cccc(C(F)(F)F)c3)on2)nc1	0.0891 µM [falling, full curve, poor fit]	
CC(=O)NC1=NN(C(C)=O)C(C)(CS(=O)(=O)c2ccc3ccccc3c2)S1 (configuration not stated)	32.6 µM [rising, partial curve, poor fit]	
CCOC(=O)c1ccc(NC(=O)Nc2ccc3c(c2)OCCO3)cc1	16.4 µM [falling, partial curve]	
CCOC(=O)c1c(NC(=O)c2ccoc2C)sc(C(=O)N(C)C)c1C	29.1 µM [falling, single point]	
O=C(CSc1nc2nn(-c3ccccc3)c(=O)c-2c2n1CCCCC2)c1ccc(O)c(O)c1	20.6 µM [rising, single point]	
O=C(Nc1ccccc1Oc1ccccc1)c1cc([N+](=O)[O-])ccc1Cl	5.17 µM [falling, partial curve]	

Quoted from the listing:
In AC50 [1], `COc1ccc(-c2cc3cc(C(=O)O)ccn3c2C(=O)c2ccccc2)cc1` has 31.6 µM [rising, single point]
In AC50 [1], `CCc1ccc(CN(C)C(=O)c2cc(COc3cccc(C(F)(F)F)c3)on2)nc1` has 0.0891 µM [falling, full curve, poor fit]
In AC50 [2], `O=[N+]([O-])c1ccc(Sc2nc3ccccc3o2)c([N+](=O)[O-])c1` has 5.8 µM [falling, full curve]

(cont.)

SMILES	AC50 [1]	AC50 [2]
NCCCNc1nc(N)c([N+](=O)[O-])c(NC2CCCCC2)n1	20 µM [falling, partial curve, poor fit]	
COc1ccc(C2(C)NC(=O)N(CC(=O)NCc3ccccc3F)C2=O)cc1 (configuration not stated)	5.62 µM [rising, single point]	
Nc1cc(=O)[nH]c(SCCNS(=O)(=O)c2ccccc2)n1	15.8 µM [rising, partial curve, poor fit]	
Cc1ccnc(NC(=O)/C=C/c2cccs2)c1	5.8 µM [falling, full curve]	
N/C(Cc1nc(-c2ccc(F)cc2)cs1)=N\O	35.5 µM [rising, single point]	
O=C(Nc1ccccc1)Nc1nnc(-c2cccs2)s1	0.00411 µM [rising, full curve, poor fit]	
CC/C(=N/O)c1cnnc(SC)n1	5.8 µM [rising, single point]	
O=C(O)C1CCN(C(=O)c2cc(F)cc3c2OCOC3)CC1	28.2 µM [falling, single point]	
O=c1c2ccccc2nc(COc2ccccc2)n1/N=C/c1cc([N+](=O)[O-])ccc1O	1.46 µM [falling, full curve]	
CCC(=O)Nc1ccc(Cl)c(NC(=O)c2c(OC)cccc2OC)c1		11.2 µM [falling, partial curve, poor fit]
CN(C)c1ccc(C(=O)OCC(=O)N2CCCC2)cc1	35.5 µM [falling, single point]	
COc1ccc(-c2nnc(-c3cccs3)o2)cc1OC	25.9 µM [falling, single point]	
Cc1cc(C)n(Cc2cccc(C(=O)N/N=C/c3cccnc3)c2)n1	31.6 µM [falling, single point]	
Cc1ccc(C)c(/C=N/NC(=S)NC(C)C)c1	29.1 µM [rising, single point]	20.6 µM [falling, partial curve, poor fit]
CC1(C)CC(=O)C2=C(C1)Nc1ccccc1NC2c1cccs1 (configuration not stated)	22.4 µM [rising, single point]	
CC(NC(=O)CCC(=O)c1ccccc1)c1ccc(F)cc1 (configuration not stated)	1.16 µM [rising, partial curve, poor fit]	
COc1cccc(/C=N/NC(=S)Nc2cccc(S(=O)(=O)N(C)C)c2)c1	1.26 µM [falling, full curve]	3.98 µM [falling, full curve, poor fit]
O=C(CCCCCN1C(=O)[C@@H]2Cc3ccccc3CN2C1=O)Nc1cccc(F)c1	35.5 µM [falling, single point]	
CC1(c2ccc(Cl)cc2)NC(=S)N2C1NC(=S)N2c1ccccc1 (configuration not stated)	35.5 µM [falling, single point]	
Cc1ccc(N2Cc3ccccc3C2=S)cc1	20 µM [rising, partial curve, poor fit]	
CN(C)CCCNS(=O)(=O)c1ccc(Oc2ncc(C(F)(F)F)cc2Cl)cc1	18.4 µM [falling, partial curve]	
